# Values quoted from earlier work, collected in US10647725B2, “Anti-infective 2-aminothiophenes” (priority 2016, dated 2020).
# Some results were stated once for a whole list of compounds, not compound by compound.
# System: Mtb during low oxygen growth
# Settings: cited from earlier work
row,Structure (SMILES),MIC during low oxygen growth [µM]
1,CC[C@@H](CO)NCCN[C@@H](CC)CO [Ethambutol],> 128
2,"NNC(=O)c1ccncc1 [INH, Isoniazid, reference compound]",> 128
